Test results as given in paper doi:10.1101/2025.07.08.663624.

Chains of the proteins cited; added tags and fusions are not shown. Lines headed by an entry give the natural chain unless they say otherwise; changes in a name come on top.
UniProt G0S5M5: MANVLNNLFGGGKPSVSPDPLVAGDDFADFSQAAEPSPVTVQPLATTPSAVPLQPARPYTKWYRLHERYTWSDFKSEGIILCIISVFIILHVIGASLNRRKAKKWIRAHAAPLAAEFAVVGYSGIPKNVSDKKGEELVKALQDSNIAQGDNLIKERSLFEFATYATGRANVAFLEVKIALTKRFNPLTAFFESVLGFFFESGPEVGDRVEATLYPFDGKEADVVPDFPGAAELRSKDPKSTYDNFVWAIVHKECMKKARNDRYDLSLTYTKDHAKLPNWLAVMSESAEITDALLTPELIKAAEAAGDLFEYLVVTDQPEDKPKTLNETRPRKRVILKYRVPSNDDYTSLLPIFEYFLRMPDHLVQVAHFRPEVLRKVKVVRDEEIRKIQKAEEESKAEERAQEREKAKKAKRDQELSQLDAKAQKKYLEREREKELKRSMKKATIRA

Assays:
[1] = biological target: Chaetomium thermophilum CCDC47 with a FLAG tag (Chaetomium thermophilum) (UniProt G0S5M5); experiment: co-IP
[2] = biological target: Chaetomium thermophilum CCDC47 with a FLAG tag (Chaetomium thermophilum) (UniProt G0S5M5); experiment: cryo-EM structure

In the case of “Chaetomium thermophilum SND3 with a C-terminal TwinStrep tag (from UniProt G0RYQ7)”, the binding [1] is reported as “binds” and the binding [2] is reported as “binds”.

Results are given in words; binding and its absence hold for the method and conditions named. Binding can be weak; no strength is given. For some assays here: Binding seen in cells or lysates may run through a third protein.
